No constants are given. Whether binding was seen depends on the method and setting. In cells and extracts the contact can be indirect. Some entries that bind do so weakly or less than the wild type. Each block holds one molecule with its values, some of them ahead of it.
Legend:
Experiment in all cases: co-IP; lysates (RIPA buffer, 500 μg protein) of 21-day Normal-RGCs and LHON-RGCs; anti-PICK1, anti-Parkin or anti-GRIP1 antibody on protein G magnetic beads; binding buffer 50 mM Hepes, 125 mM NaCl, 0.1% Triton X-100, 15 μM CaCl2, 5 μM EDTA; 4 °C overnight; immunoblot of the precipitates
[1] = target: GRIP1 (human (endogenous in hiPSC-derived RGCs)) (UniProt Q9Y3R0)
[2] = target: PICK1 (human (endogenous in hiPSC-derived RGCs)) (UniProt Q9NRD5)
[3] = target: Parkin (human (endogenous in hiPSC-derived RGCs)) (UniProt O60260)

Protein sequences, listed by entry. Tags and fused reporters are not part of them. Residues count along the entry.
UniProt Q9Y3R0: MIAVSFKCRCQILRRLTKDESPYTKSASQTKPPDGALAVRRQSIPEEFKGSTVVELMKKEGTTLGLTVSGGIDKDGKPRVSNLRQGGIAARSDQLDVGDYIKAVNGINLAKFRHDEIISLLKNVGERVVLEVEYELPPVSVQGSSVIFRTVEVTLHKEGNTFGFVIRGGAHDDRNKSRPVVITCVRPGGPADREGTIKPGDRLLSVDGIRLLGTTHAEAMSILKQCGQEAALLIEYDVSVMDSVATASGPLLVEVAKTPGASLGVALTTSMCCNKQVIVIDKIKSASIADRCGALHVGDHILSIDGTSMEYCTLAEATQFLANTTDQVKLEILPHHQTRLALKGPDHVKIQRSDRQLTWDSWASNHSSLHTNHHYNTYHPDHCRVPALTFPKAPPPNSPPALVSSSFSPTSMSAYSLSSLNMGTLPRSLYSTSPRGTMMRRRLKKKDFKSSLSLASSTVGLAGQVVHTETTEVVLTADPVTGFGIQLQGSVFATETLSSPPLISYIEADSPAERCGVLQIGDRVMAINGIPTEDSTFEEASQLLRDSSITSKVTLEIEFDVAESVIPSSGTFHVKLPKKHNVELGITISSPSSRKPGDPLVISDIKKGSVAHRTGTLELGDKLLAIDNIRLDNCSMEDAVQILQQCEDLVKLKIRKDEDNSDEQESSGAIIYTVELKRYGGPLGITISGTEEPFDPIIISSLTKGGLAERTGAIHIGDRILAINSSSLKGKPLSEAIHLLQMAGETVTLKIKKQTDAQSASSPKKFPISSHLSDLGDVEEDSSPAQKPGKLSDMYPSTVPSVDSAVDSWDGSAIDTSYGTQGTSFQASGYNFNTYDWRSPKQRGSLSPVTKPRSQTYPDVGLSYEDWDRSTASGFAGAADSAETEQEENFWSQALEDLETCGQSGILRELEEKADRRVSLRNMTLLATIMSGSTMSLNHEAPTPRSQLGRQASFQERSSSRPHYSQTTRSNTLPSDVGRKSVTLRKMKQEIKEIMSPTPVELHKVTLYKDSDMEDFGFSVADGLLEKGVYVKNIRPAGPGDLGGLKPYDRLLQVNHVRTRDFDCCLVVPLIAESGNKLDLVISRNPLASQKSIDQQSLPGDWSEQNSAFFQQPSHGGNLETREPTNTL
UniProt O60260: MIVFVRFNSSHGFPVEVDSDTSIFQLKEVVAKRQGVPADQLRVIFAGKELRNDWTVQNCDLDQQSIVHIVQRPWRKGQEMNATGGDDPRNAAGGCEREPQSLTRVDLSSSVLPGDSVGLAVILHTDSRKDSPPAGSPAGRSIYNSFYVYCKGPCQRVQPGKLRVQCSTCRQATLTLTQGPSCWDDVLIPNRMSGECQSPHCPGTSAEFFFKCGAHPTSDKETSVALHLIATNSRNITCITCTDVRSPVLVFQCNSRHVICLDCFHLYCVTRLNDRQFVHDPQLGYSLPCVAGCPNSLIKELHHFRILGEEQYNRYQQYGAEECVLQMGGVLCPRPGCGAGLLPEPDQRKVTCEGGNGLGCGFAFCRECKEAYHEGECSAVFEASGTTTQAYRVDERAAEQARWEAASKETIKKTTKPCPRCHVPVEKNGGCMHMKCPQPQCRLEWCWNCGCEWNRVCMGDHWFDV
UniProt P42262, residues 25-883: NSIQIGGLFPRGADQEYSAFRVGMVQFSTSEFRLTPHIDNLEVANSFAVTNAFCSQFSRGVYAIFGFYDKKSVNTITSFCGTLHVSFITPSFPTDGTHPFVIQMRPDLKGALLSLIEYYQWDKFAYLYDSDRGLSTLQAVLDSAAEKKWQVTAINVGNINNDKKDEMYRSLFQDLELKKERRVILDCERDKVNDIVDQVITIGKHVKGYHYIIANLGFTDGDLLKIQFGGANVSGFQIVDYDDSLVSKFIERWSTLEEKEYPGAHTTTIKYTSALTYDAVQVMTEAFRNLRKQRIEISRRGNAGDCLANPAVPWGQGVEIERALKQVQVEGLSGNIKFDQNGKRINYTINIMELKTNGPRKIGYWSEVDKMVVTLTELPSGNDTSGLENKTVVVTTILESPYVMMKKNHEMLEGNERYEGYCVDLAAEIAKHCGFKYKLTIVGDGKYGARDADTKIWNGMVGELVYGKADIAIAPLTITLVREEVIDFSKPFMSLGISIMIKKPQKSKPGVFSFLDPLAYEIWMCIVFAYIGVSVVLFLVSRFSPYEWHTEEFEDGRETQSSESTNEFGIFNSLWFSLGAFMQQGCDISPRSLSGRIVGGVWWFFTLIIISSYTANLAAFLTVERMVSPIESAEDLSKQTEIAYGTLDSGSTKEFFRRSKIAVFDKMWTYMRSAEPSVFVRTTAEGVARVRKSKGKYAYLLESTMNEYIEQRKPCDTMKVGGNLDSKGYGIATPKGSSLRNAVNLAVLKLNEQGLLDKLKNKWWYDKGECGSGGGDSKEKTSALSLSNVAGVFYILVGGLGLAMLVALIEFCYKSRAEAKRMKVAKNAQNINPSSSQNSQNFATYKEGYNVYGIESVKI

binding [1]: binds
Molecule: AMPA receptor subunit GluR2 (from UniProt P42262 25-883)

binding [2]: binds
Molecule: protein kinase Cα (from UniProt P17252 1-672) (enzyme)

binding [3]: binds
B1: Homer 1b/1c (protein, UniProt Q86YM7 1-354)
chain: MGEQPIFSTRAHVFQIDPNTKKNWVPTSKHAVTVSYFYDSTRNVYRIISLDGSKAIINSTITPNMTFTKTSQKFGQWADSRANTVYGLGFSSEHHLSKFAEKFQEFKEAARLAKEKSQEKMELTSTPSQESAGGDLQSPLTPESINGTDDERTPDVTQNSEPRAEPTQNALPFSHSSAISKHWEAELATLKGNNAKLTAALLESTANVKQWKQQLAAYQEEAERLHKRVTELECVSSQANAVHTHKTELNQTIQELEETLKLKEEEIERLKQEIDNARELQEQRDSLTQKLQEVEIRNKDLEGQLSDLEQRLEKSQNEQEAFRNNLKTLLEILDGKIFELTELRDNLAKLLECS
